# Data taken from PubChem BioAssay (Tox21).
# Chains of the proteins cited; added tags and fusions are not shown.
# UniProt P14416, whole entry, looked up: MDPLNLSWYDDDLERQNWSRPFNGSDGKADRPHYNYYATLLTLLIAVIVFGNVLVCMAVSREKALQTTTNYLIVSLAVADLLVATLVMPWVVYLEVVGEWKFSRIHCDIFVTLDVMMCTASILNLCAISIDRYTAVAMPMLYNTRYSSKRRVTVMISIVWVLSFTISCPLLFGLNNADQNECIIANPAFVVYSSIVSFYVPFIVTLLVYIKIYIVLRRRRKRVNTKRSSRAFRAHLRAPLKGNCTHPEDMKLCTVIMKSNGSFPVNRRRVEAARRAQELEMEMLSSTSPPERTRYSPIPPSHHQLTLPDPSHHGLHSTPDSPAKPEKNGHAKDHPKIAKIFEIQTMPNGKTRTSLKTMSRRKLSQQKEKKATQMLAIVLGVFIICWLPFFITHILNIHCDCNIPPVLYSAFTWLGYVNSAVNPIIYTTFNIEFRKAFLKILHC
# Values joined by “and” are separate entries in the source; they are usually repeats but may differ in a detail not shown here. Equal values may be shown once. The shares of active, inactive and inconclusive entries below differ from those in the screen. A call without a number means that no potency is given here. A potency beside an inconclusive call is a rough fit, not a confirmed value. Active and inactive are the calls of the source. Unless noted, the call rests on the fitted dose curve.
# Tests used:
# [1] = biological target: Beta-2 adrenergic receptor (Homo sapiens) (UniProt P07550); test: Adrenergic beta2 receptor (ADRB2) small molecule agonists, cell-based qHTS assay (AID 1963593); conditions: CHO-ADRB2 cells, cAMP HTRF, 30 min; activation: at 92.4 µM (top of the series) unless noted;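 on activation: CHO cells stably overexpressing human ADRB2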
# In short: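 CHO cells stably over-expressing ADRB2 were plated overnight at 37C, then dosed with compounds plus a stimulation mix containing 100uM IBMX and 25uM Ro-20-1724 for 0.5hr at room temperature. cAMP was measured by HTRF competition, 1hr.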
# [2] = biological target: D(2) dopamine receptor (Homo sapiens) (UniProt P14416); test: Dopamine D2 receptor (DRD2) small molecule antagonists, cell-based qHTS assay (AID 1963595; active means well fitted inhibition curve with a large enough effect in the signal ratio in the repeat runs, with a control signal flat; inconclusive means weak or mixed curves, or effect the other way; the % refers to the signal ratio); conditions: HEK293-DRD2 cAMP HTRF antagonist mode; activity change, negative = inhibition: at 92.4 µM (top of the series) unless noted
# In short: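 Antagonist mode in DRD2-HEK293 cells: after compound addition with 0.1 mM Ro20-1724, cells received quinpirole (12 nM) and NKH477 (200 nM) for 30 min at room temperature; HTRF cAMP read after 1 h detection.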
# Potency means the concentration at half of the fitted maximal effect.
structure (smiles),measurement,setting,value
CC1(C)CC(O)CC(C)(C)N1[O],activation,[1],inconclusive: -1.42%
same,Potency,[2],inactive
CSc1ccc(C(=O)c2[nH]c(=O)[nH]c2C)cc1,Potency,[1],inactive
same,Potency,[2],inactive
CCN(CC)CCNC(=O)c1cc(Cl)c(N)cc1OC,activation,[1],inconclusive: -18.9% [at 42.5 µM]
same,Potency,[2],active: 1680 nM
CNC(C)=O,Potency,[1],inactive
same,Potency,[2],"inconclusive: 77000 nM [inhibitor, single point]"
C=CC(=O)OCCCCCCCC,activation,[1],inconclusive: -0.28%
same,Potency,[2],inactive
CSSc1ccoc1C,Potency,[1],"inconclusive: 3050 nM [inhibitor, partial curve, poor fit]"
same,Potency,[2],inactive
COc1ccc(C#N)cc1,Potency,[1],inactive
same,Potency,[2],inactive
Cc1cccc(C)c1NC(=O)CC12CCCN1CCC2,Potency,[1],inactive
same,"activity change, negative = inhibition",[2],inconclusive: -1.43% [at 42.5 µM]
C=C(C)OC(C)=O,activation,[1],inconclusive: 22.4% and inconclusive: 0.0453%
same,Potency,[2],inactive
COc1cccc([C@H](O)C2CCN(CCc3ccc(F)cc3)CC2)c1OC,activation,[1],inconclusive: 3.42%
same,Potency,[2],inactive
O=CNNC=O,activation,[1],inconclusive: 7.68%
same,Potency,[2],inactive
Cc1ccnc2c1NC(=O)c1cccnc1N2C1CC1,activation,[1],inconclusive: 9.4%
same,Potency,[2],inactive
c1ccc2c(c1)CCCC2C1=NCCN1 (centres undefined),Potency,[1],inactive
same,Potency,[2],"inconclusive: 33500 nM [inhibitor, single point]"
CCCCC(C=O)CC (centres undefined),Potency,[1],inactive
same,"activity change, negative = inhibition",[2],inconclusive: -17.6%
OC(Cn1cncn1)(Cn1cncn1)c1ccc(F)cc1F,activation,[1],inconclusive: 5.58%
same,Potency,[2],inactive
NNC(=O)c1cccc(C(=O)NN)c1,Potency,[1],inactive
same,Potency,[2],"inconclusive: 864 nM [inhibitor, single point]"
CCc1c(C(=O)O)c(=O)cnn1-c1ccc(Cl)cc1,Potency,[1],"inconclusive: 545 nM [inhibitor, full curve, poor fit]"
COc1ccnc(CS(=O)c2nc3ccc(OC(F)F)cc3[nH]2)c1OC (centres undefined),activation,[1],inconclusive: -29.7% [at 42.5 µM]

# Looked up one by one from above (two):
structure (smiles),measurement,setting,value
CSSc1ccoc1C,Potency,[2],inactive
CCc1c(C(=O)O)c(=O)cnn1-c1ccc(Cl)cc1,Potency,[1],"inconclusive: 545 nM [inhibitor, full curve, poor fit]"
